The target of this assay is Pericentriolar Material 1 (PCM1) protein (human (endogenous in Jurkat)) (UniProt Q15154). The experiment in a line: co-IP.

Chains of the proteins cited; added tags and fusions are not shown.
UniProt Q15154: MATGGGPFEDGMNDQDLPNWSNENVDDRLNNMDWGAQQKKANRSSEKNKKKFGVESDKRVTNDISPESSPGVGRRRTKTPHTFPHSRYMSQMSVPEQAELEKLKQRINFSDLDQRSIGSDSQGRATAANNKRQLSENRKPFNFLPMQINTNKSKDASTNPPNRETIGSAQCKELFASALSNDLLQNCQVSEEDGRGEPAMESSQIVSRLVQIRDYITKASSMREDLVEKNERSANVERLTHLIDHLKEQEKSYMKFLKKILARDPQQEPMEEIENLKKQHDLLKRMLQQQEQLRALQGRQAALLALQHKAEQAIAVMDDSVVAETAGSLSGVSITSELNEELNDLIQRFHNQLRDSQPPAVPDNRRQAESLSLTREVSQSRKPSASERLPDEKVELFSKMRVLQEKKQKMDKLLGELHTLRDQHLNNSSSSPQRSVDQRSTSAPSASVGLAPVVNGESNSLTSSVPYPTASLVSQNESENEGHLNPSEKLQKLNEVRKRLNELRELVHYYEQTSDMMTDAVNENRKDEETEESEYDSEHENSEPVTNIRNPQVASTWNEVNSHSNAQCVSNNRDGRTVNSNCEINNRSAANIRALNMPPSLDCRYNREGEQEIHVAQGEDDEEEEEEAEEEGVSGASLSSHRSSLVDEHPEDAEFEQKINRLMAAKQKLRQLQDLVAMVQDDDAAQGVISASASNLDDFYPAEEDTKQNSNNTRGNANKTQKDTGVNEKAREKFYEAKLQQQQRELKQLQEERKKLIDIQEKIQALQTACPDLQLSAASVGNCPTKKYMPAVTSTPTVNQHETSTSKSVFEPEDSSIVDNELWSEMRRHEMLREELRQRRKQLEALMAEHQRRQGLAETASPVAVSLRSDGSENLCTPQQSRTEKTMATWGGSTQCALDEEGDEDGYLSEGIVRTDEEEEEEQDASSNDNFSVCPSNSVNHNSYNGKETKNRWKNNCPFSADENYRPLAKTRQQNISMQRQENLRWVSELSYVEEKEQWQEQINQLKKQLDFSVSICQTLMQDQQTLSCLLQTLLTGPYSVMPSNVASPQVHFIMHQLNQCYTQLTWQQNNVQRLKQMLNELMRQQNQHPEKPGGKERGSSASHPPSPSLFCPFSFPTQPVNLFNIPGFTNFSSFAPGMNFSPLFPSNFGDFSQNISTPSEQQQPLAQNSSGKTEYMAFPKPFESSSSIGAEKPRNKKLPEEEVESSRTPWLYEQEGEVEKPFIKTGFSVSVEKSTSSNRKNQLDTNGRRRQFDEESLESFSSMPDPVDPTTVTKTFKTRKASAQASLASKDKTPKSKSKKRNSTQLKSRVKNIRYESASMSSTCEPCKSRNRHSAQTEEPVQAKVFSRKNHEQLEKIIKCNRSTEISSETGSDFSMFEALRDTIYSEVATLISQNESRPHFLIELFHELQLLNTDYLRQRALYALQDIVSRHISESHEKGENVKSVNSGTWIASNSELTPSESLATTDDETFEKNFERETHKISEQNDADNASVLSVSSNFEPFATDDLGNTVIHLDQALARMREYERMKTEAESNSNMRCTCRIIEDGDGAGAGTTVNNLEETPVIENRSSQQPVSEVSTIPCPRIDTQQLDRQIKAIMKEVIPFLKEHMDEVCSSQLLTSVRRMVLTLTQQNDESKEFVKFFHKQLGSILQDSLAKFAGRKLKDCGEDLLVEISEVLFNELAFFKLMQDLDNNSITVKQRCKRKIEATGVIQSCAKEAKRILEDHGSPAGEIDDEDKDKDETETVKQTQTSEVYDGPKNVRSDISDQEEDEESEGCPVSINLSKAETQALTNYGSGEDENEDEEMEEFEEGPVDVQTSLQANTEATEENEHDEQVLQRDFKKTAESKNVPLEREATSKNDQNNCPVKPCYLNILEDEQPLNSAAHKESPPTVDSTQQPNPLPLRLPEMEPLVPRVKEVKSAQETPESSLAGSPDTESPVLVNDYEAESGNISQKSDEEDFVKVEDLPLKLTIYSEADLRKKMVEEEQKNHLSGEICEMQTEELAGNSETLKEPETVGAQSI
UniProt O15078: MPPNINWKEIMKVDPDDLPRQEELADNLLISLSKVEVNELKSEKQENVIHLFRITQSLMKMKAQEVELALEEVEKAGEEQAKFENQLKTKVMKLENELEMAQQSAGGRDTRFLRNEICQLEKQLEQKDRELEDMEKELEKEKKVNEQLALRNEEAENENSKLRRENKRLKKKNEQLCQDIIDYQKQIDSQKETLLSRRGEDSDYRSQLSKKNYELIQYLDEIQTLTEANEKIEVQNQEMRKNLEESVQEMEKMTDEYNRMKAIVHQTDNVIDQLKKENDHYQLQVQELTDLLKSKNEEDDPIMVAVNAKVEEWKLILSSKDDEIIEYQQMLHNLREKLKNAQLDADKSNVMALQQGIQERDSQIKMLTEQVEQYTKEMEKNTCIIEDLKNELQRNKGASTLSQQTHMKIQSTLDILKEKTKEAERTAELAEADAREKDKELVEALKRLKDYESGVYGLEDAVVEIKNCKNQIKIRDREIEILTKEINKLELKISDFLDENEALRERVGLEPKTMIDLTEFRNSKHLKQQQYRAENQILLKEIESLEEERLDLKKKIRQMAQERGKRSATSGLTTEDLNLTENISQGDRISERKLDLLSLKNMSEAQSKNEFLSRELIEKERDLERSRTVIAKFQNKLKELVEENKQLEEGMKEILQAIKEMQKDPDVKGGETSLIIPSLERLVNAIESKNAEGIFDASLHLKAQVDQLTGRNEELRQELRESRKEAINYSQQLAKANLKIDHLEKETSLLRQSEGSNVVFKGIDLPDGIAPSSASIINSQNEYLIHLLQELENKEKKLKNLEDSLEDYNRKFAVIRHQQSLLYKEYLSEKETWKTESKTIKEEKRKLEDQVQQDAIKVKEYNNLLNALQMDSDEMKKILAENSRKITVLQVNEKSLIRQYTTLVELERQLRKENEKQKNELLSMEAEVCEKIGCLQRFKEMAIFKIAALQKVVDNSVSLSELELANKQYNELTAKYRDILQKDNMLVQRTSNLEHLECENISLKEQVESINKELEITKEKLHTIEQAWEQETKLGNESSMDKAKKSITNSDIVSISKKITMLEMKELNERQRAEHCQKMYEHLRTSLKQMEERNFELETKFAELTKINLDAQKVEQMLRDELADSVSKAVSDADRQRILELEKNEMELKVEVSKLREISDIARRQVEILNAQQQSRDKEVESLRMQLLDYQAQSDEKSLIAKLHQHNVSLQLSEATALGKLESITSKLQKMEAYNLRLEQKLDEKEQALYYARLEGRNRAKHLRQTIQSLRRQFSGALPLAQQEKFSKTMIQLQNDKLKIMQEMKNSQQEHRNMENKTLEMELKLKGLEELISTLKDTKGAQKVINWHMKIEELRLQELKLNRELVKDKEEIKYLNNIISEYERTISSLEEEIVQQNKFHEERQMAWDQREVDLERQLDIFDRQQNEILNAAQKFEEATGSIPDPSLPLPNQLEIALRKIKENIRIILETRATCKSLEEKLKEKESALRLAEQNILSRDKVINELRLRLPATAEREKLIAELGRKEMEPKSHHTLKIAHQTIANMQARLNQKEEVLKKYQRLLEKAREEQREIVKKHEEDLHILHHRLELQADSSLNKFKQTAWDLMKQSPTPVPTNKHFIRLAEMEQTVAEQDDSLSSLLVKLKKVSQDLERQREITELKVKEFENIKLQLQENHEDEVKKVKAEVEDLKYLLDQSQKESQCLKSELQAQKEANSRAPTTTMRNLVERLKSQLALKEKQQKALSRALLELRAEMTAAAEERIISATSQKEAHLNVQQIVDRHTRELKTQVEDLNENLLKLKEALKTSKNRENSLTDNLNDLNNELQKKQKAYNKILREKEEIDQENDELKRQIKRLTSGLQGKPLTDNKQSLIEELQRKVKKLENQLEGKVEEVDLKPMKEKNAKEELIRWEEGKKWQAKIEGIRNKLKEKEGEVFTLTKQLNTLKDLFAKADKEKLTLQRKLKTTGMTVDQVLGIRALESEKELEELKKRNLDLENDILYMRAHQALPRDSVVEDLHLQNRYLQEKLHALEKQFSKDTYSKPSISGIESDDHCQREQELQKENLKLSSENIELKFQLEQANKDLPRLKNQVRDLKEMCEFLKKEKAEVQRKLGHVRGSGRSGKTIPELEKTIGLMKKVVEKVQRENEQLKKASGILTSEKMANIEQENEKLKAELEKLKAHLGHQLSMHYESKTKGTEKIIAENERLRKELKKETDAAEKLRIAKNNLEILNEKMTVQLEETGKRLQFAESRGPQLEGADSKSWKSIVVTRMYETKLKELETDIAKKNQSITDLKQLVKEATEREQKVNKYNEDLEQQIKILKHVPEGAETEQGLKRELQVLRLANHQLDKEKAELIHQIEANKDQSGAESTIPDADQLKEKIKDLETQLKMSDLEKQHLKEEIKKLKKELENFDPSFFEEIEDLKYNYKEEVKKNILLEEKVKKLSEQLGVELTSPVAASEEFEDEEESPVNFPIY

Results are given in words; binding and its absence hold for the method and conditions named. Binding seen in cells or lysates may run through a third protein. Some entries that bind do so weakly or less than the wild type.

For the molecule CEP290 (from UniProt O15078 1-2479), the binding result was “binds”.

B1: CEP131 (protein, UniProt Q9UPN4 1-1083)
chain: MKGTRAIGSVPERSPAGVDLSLTGLPPPVSRRPGSAATTKPIVRSVSVVTGSEQKRKVLEATGPGGSQAINNLRRSNSTTQVSQPRSGSPRPTEPTDFLMLFEGSPSGKKRPASLSTAPSEKGATWNVLDDQPRGFTLPSNARSSSALDSPAGPRRKECTVALAPNFTANNRSNKGAVGNCVTTMVHNRYTPSERAPPLKSSNQTAPSLNNIIKAATCEGSESSGFGKLPKNVSSATHSARNNTGGSTGLPRRKEVTEEEAERFIHQVNQATVTIQRWYRHQVQRRGAGAARLEHLLQAKREEQRQRSGEGTLLDLHQQKEAARRKAREEKARQARRAAIQELQQKRALRAQKASTAERGPPENPRETRVPGMRQPAQELSPTPGGTAHQALKANNTGGGLPAAGPGDRCLPTSDSSPEPQQPPEDRTQDVLAQDAAGDNLEMMAPSRGSAKSRGPLEELLHTLQLLEKEPDVLPRPRTHHRGRYAWASEVTTEDDASSLTADNLEKFGKLSAFPEPPEDGTLLSEAKLQSIMSFLDEMEKSGQDQLDSQQEGWVPEAGPGPLELGSEVSTSVMRLKLEVEEKKQAMLLLQRALAQQRDLTARRVKETEKALSRQLQRQREHYEATIQRHLAFIDQLIEDKKVLSEKCEAVVAELKQEDQRCTERVAQAQAQHELEIKKLKELMSATEKARREKWISEKTKKIKEVTVRGLEPEIQKLIARHKQEVRRLKSLHEAELLQSDERASQRCLRQAEELREQLEREKEALGQQERERARQRFQQHLEQEQWALQQQRQRLYSEVAEERERLGQQAARQRAELEELRQQLEESSSALTRALRAEFEKGREEQERRHQMELNTLKQQLELERQAWEAGRTRKEEAWLLNREQELREEIRKGRDKEIELVIHRLEADMALAKEESEKAAESRIKRLRDKYEAELSELEQSERKLQERCSELKGQLGEAEGENLRLQGLVRQKERALEDAQAVNEQLSSERSNLAQVIRQEFEDRLAASEEETRQAKAELATLQARQQLELEEVHRRVKTALARKEEAVSSLRTQHEAAVKRADHLEELLEQHRRPTPSTK
Consider B1, for which the binding result is listed as “binds”.

These data come from doi:10.1101/2023.05.05.539527.
